From ChEMBL document CHEMBL3988442, “University of Dundee, Small-Polar-MMV Screening Library” (2021).

By UniProt entry, the sequences of proteins in these tests, tags left out. Residues count along the entry.
UniProt Q8IDJ8, 1-583: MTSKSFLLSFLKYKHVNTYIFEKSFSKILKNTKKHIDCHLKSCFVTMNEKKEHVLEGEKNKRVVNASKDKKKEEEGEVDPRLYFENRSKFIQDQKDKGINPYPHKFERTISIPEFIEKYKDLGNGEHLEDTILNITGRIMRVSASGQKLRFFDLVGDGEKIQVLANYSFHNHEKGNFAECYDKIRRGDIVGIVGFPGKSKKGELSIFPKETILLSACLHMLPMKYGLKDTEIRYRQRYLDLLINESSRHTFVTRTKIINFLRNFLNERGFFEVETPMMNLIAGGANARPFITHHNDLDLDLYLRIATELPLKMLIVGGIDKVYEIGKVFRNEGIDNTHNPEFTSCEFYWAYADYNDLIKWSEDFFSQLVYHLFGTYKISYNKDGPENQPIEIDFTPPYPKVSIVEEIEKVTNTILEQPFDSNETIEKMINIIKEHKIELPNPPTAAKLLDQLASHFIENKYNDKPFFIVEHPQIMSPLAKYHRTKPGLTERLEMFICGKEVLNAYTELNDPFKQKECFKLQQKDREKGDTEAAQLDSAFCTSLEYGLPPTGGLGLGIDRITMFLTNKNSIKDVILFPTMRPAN

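Lysine-tRNA ligase, Plasmodium falciparum 3D7 (UniProt Q8IDJ8). Enzyme assay of the cytosolic lysyl-tRNA synthetase in 384-well plates, read by luminescence. Concentration: 30 µM. Higher reads as stronger inhibition, judged from the few compounds that gave an IC50. Size under these conditions: about 69,000 compounds, about 49 of them at 50% or above in at least one test.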

Each number is a percent effect as filed. How 0% and 100% were set is not recorded. Most values in the screen are low, and negative values occur. This is an unselected part of the compounds tested.

Compound | effect
CCN1CCN(c2ccc(C(=O)NC(C)C(=O)N(C)C)cc2)CC1 (stereo not drawn) | 6.144
O=C1CCC2(CCN(Cc3ccoc3)CC2)N1OCc1ccccc1F | 2.088
CC(C)c1nc2c(n1C)CCN(Cc1cccc(OCC(N)=O)c1)C2 | 3.019
Cc1nc(CN2CCN(S(=O)(=O)N3CCCCC3)CC2)oc1C | 1.61
CSCCC(=O)N1CCC(c2nccn2CCN(C)C)CC1 | 7.942
CCN1CC(COC(=O)c2ccccc2Cl)CC1=O (stereo not drawn) | 0.3431
O=C(Nc1ccc(Cn2cccn2)cc1)N1CCC(CO)CC1 | 2.694
CCS(=O)(=O)CCNC(=O)c1cc2n(n1)CCCO2 | 2.131
COc1ccc(C)cc1C(C)NC(=O)Cn1ccc(=O)n(C)c1=O (stereo not drawn) | -1.032
COCC(=O)Nc1nn(Cc2ccc(F)cc2)cc1Cl | 8.879
NC(=O)C1CCN(c2nc3nccc(-c4ccccn4)c3c(=O)[nH]2)CC1 | 10.04
CCOc1ccc(C(=O)Nc2c(C)nc3ccc(Cl)cn3c2=O)cc1 | 0.9854
CCc1nc(N)nc(NCCC(=O)NC2CCCCC2)c1C | -0.979
Cc1ccccc1N1CCCN(C(=O)c2nn(C)cc2Cl)CC1 | -2.531
Cc1cc(C(=O)N2CCc3nc(C4CCCN4)ncc3C2)cs1 (stereo not drawn) | 1.298
Cn1cnc2c1CCN(Cc1csc(C3CCCCC3)n1)C2 | 2.42
CCn1ncc2c1C(COC)CN(Cc1ccc(F)cc1)C2 (stereo not drawn) | -1.181
CN(C)c1ncccc1CNS(=O)(=O)c1ccccc1Cl | -0.816
Cc1cc(C(=O)N2CCCC2c2nnc3n2CCCCC3)no1 (stereo not drawn) | 1.841
O=C1NCCCc2[nH]c(Cc3ccc(F)cc3)nc21 | 0.4352
CC(C)CCN1C2(CCN(C(=O)C3(C)CC3)C2)c2ccccc2S1(=O)=O (stereo not drawn) | -3.066
CC1CCC(O)(CSc2nnnn2C)CC1 (stereo not drawn) | 7.238
CC(=O)N1CCc2nc(N3CCCC3)nc(C)c2C1 | 5.41
CN(C)[C@H]1CCCCN(C(=O)c2cccc(-c3cccc(F)c3)c2)C1 | 0.522
CN(Cc1cnn(C)c1)C(=O)CN1CCCC1Cn1cncn1 (stereo not drawn) | 1.216
COC(=O)c1cccc(CNC(=O)CC(F)(F)F)c1 | 6.255
CCN(CCc1nccs1)C(=O)c1ncoc1C | 0.6237
O=C1CCCC2=C1C(c1ccccc1Cl)Nc1nonc1N2 (stereo not drawn) | 4.95
CNC(=O)[C@H]1C[C@@H]2CN(Cc3ccccc3)C[C@H]1O2 | 3.571
CCCc1cc(CNC2CCN(c3cc(C)nc(N)n3)CC2)on1 | 0.4755
CN(C)C(=O)c1nc2c(n1C)CCN(Cc1ccccc1)C2 | 2.008
Cc1nc(-c2ccco2)ccc1C(=O)NCCC(=O)N1CCCCC1 | 1.117
O=C1NC[C@H]2CN(Cc3nccs3)CCN12 | 8.504
Cc1cncc(C(=O)N2CCC3(CC2)NC(=O)CC3c2ccccc2)c1 (stereo not drawn) | -8.406
O=C(NC1CCN(c2cccc(OC(F)(F)F)c2)C1=O)C1CCC1 (stereo not drawn) | 0.5032
O=S1(=O)C[C@@H]2[C@H](C1)N(S(=O)(=O)N1CCCC1)CCN2Cc1ccccc1 | 0.7703
COCCN1CCO[C@@H]2CN(Cc3ccccc3OC)C[C@@H]2C1 | 5.485
COCCC(=O)N(Cc1ccccn1)Cc1ccccc1C | -0.3497
CN(CCN1CCCCC1)C(=O)c1cc(CN2CCOCC2)on1 | 1.032
Cc1cc(C)n(CC(C)CNC(=O)NCc2csc(C)n2)n1 (stereo not drawn) | -6.575
O=C1CCC2(CCN(CC[C@H](O)c3ccccc3)CC2)CN1CCO | 5.593
CC(=O)NCC(=O)N1CCC2(CC1)C(=O)N(CC1CC1)c1ccccc12 | 2.345
Cc1ccc(NCCNC(=O)C2Cc3cc(C)c(C)cc3O2)nn1 (stereo not drawn) | -3.744
Cc1nn(CCC(=O)N(C)Cc2c(Cl)cnn2C)cc1Br | -0.2702
CSCC(C)(O)CNC(=O)c1cc(Br)ccc1Cl (stereo not drawn) | 4.602
CCC(O)CN1CCN(C(=O)c2cccn2Cc2cccnc2)CC1 (stereo not drawn) | -0.6327

4 of the entries, repeated:

Compound	effect
CCn1ncc2c1C(COC)CN(Cc1ccc(F)cc1)C2 (stereo not drawn)	-1.181
CCN1CC(COC(=O)c2ccccc2Cl)CC1=O (stereo not drawn)	0.3431
Cc1nc(CN2CCN(S(=O)(=O)N3CCCCC3)CC2)oc1C	1.61
O=C1NCCCc2[nH]c(Cc3ccc(F)cc3)nc21	0.4352